For four molecules, binding results are on record in patent US20230055566A1.

Protein sequences, listed by entry. Tags and fused reporters are not part of them. Lines headed by an entry give the natural chain unless they say otherwise; changes in a name come on top.
UniProt P21802: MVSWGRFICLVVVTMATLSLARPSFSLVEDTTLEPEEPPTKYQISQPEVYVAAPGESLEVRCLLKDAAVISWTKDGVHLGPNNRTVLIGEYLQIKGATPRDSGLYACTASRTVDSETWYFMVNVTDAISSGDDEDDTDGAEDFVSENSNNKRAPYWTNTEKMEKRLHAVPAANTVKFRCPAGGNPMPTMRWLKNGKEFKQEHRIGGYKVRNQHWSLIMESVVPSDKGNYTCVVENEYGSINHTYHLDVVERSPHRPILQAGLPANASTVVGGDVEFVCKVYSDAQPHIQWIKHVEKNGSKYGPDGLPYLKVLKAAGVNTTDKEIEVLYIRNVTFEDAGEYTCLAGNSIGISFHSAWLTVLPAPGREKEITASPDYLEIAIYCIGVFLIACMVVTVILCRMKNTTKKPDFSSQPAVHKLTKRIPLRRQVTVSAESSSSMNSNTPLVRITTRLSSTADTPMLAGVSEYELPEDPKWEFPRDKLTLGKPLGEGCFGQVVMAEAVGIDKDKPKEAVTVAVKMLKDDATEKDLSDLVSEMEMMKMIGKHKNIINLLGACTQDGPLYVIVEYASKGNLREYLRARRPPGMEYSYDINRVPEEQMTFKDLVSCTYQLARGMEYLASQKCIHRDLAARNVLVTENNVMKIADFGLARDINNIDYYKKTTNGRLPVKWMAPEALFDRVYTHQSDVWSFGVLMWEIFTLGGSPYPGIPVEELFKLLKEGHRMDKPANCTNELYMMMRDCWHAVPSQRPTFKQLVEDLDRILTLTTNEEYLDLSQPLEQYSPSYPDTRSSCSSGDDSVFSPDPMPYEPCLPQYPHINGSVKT

These are yes or no findings as the source states them, for the method shown. Binding can be weak; no strength is given.

The target in assay [1] is endogenous FGFR2b on the cell membrane of human gastric cancer cells (KATOIII, SNU16) (human) (UniProt P21802). Nature of the assay: flow cytometry on FGFR2b expressing KATOIII cells. For orientation: A flow cytometer gives signals particle by particle.
For assay [2] the target is unchanged. Nature of the assay: flow cytometry on KATOIII cells, anti-human IgG-Alexa488 secondary.
For assay [3] the target is unchanged. The assay is described as follows: flow cytometry on KATOIII cells.
Assay [4] shares this target. Nature of the assay: confocal microscopy of KATOIII cells incubated with 10 ug/ml Ab 21, Alexa488 secondary.
Assay [5] has the same target. Nature of the assay: confocal microscopy of KATOIII cells incubated with 10 µg/ml antibody.

B1: Ab hu21-21 (antibody, V domains shown)
VH: EVQLVQSGAEVKKPGASVKVSCKASGYTFTNYWMHWVRQAPGQGLEWMGAIYPENGDINYNQKFKGRVTLTRDTSISTAYMELSRLRSDDTAVYYCTSRGDYWGQGTTVTVSS
VL: AIQLTQSPSSLSASVGDRVTITCSASSGLSYMSWYQQKPGKAPKLLIYDTSNLASGVPSRFSGSGSGTDFTLTISSLQPEDFATYYCQQWSSYPYTFGQGTKLEIK
With B1, the binding result in assay [1] is listed as “binds”.

B2: Ab hu21-26 (antibody, human IgG1, V domains shown)
VH: EVQLVQSGAEVKKPGASVKVSCKASGYTFTNYWMHWVRQAPGQGLEWMGAIYPENRDINYNQKFKGRVTLTRDTSISTAYMELSRLRSDDTAVYYCTSRGDYWGQGTTVTVSS
VL: AIQLTQSPSSLSASVGDRVTITCSASSGLSYMSWYQQKPGKAPKLLIYDTSNLASGVPSRFSGSGSGTDFTLTISSLQPEDFATYYCQQWSSYPYTFGQGTKLEIK
Turning to B2, the binding result in assay [1] is recorded as “binds”.

B3: Ab 21c (antibody, V domains shown)
VH: EVQLHQSGTVLARPGASVKMSCKTSGYTFTNYWMHWIKQRPGQGLEWIGAIYPENGDINYNQKFKGKAKLTAVTSASTAYMDLSSLTNEDSAVYYCTSRGDYWGQGTTLTVSS
VL: QIVLTQSPAIMSASPGEKVTMTCSASSGLSYMSWYQQKPGSSPRLLIYDTSNLASGVPVRFSGSGSGTSYSLTISRMEAEDAATYYCQQWSSYPYTFGGGTKLEIK
With B3, the binding entry in assay [2] and in assay [3] was “binds” in each case.

B4: Ab 21 (antibody, V domains shown)
VH: EVQLHQSGTVLARPGASVKMSCKTSGYTFTNYWMHWIKQRPGQGLEWIGAIYPENGDINYNQKFKGKAKLTAVTSASTAYMDLSSLTNEDSAVYYCTSRGDYWGQGTTLTVSS
VL: QIVLTQSPAIMSASPGEKVTMTCSASSGLSYMSWYQQKPGSSPRLLIYDTSNLASGVPVRFSGSGSGTSYSLTISRMEAEDAATYYCQQWSSYPYTFGGGTKLEIK
Regarding B4, the binding entry in assay [4] and in assay [5] was “binds” in each case.
